Measurements as given in paper PMC3607232.
Results are given in words; binding and its absence hold for the method and conditions named. Binding seen in cells or lysates may run through a third protein. Some binding calls cover weakened binding; strength is not graded here.

Sequences of proteins named here, by UniProt entry; tags and fusion partners are left off. Residues count along the entry.
UniProt Q03164, residues 2719-3969: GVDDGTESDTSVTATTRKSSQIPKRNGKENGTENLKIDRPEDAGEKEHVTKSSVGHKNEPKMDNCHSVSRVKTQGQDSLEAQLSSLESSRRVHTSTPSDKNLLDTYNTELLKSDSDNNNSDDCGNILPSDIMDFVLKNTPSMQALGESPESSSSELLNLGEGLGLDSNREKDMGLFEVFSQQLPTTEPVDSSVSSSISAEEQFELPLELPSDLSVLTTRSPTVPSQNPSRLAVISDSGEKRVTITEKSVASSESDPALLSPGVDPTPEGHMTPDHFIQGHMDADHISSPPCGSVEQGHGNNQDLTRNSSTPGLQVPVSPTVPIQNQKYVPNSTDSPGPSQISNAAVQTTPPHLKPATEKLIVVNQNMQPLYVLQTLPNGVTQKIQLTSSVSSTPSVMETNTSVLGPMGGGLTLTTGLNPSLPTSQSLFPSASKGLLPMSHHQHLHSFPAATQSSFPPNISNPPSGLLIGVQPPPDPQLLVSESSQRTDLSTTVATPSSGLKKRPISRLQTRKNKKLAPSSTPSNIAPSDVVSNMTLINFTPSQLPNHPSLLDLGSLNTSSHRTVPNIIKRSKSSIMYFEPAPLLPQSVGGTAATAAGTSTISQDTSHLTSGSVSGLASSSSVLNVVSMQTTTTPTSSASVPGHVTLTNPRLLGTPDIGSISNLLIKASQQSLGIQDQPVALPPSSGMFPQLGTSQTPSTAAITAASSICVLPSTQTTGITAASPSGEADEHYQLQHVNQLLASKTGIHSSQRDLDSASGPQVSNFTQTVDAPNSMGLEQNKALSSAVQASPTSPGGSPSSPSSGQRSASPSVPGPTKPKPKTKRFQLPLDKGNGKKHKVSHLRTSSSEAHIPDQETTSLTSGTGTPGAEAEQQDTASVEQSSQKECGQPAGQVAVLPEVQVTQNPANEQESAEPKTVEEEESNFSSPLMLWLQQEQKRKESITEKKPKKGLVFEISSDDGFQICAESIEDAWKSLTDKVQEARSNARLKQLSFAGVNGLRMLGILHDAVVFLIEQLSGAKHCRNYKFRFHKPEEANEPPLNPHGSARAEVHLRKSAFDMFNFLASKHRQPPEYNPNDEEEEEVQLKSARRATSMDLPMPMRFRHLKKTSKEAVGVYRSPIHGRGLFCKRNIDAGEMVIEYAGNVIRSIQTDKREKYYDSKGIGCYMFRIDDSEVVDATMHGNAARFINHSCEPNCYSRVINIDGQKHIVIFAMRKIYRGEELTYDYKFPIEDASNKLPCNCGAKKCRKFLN
UniProt Q01196: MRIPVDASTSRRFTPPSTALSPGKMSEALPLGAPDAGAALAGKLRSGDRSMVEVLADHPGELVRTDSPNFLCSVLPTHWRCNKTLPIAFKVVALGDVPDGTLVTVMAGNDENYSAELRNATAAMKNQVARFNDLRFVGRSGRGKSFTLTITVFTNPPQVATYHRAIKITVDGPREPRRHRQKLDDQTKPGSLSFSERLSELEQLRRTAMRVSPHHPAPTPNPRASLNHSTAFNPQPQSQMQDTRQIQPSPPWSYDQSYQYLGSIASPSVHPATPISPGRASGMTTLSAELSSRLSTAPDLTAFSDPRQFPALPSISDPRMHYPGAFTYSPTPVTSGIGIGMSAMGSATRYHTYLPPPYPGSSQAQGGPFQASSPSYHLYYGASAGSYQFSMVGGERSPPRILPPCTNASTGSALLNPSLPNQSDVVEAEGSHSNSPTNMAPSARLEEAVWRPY

Key:
[1] = target: MLL-C (human (endogenous in RS4;11, SEM and CCRF-CEM)) (UniProt Q03164); assay: co-IP; 500 ug RS4;11 or SEM (t(4;11)) nuclear extract in 20 mM Tris-HCl pH 7.5, 20% glycerol, 300 mM KCl, 5 mM EDTA; overnight at 4°C with anti-AF4-N, anti-RUNX1 or anti-MLL-C (rabbit IgG as control); protein A and G Dynabeads; wash at 150 mM KCl; Western blot
[2] = target: RUNX1 (human (endogenous in RS4;11, SEM and CCRF-CEM)) (UniProt Q01196); assay: as above

binding [1]: binds
binding [2]: binds
B1: wild-type AF4 (protein, UniProt P51825 1-1210)
chain: MAAQSSLYNDDRNLLRIREKERRNQEAHQEKEAFPEKIPLFGEPYKTAKGDELSSRIQNMLGNYEEVKEFLSTKSHTHRLDASENRLGKPKYPLIPDKGSSIPSSSFHTSVHHQSIHTPASGPLSVGNISHNPKMAQPRTEPMPSLHAKSCGPPDSQHLTQDRLGQEGFGSSHHKKGDRRADGDHCASVTDSAPERELSPLISLPSPVPPLSPIHSNQQTLPRTQGSSKVHGSSNNSKGYCPAKSPKDLAVKVHDKETPQDSLVAPAQPPSQTFPPPSLPSKSVAMQQKPTAYVRPMDGQDQAPSESPELKPLPEDYRQQTFEKTDLKVPAKAKLTKLKMPSQSVEQTYSNEVHCVEEILKEMTHSWPPPLTAIHTPSTAEPSKFPFPTKDSQHVSSVTQNQKQYDTSSKTHSNSQQGTSSMLEDDLQLSDSEDSDSEQTPEKPPSSSAPPSAPQSLPEPVASAHSSSAESESTSDSDSSSDSESESSSSDSEENEPLETPAPEPEPPTTNKWQLDNWLTKVSQPAAPPEGPRSTEPPRRHPESKGSSDSATSQEHSESKDPPPKSSSKAPRAPPEAPHPGKRSCQKSPAQQEPPQRQTVGTKQPKKPVKASARAGSRTSLQGEREPGLLPYGSRDQTSKDKPKVKTKGRPRAAASNEPKPAVPPSSEKKKHKSSLPAPSKALSGPEPAKDNVEDRTPEHFALVPLTESQGPPHSGSGSRTSGCRQAVVVQEDSRKDRLPLPLRDTKLLSPLRDTPPPQSLMVKITLDLLSRIPQPPGKGSRQRKAEDKQPPAGKKHSSEKRSSDSSSKLAKKRKGEAERDCDNKKIRLEKEIKSQSSSSSSSHKESSKTKPSRPSSQSSKKEMLPPPPVSSSSQKPAKPALKRSRREADTCGQDPPKSASSTKSNHKDSSIPKQRRVEGKGSRSSSEHKGSSGDTANPFPVPSLPNGNSKPGKPQVKFDKQQADLHMREAKKMKQKAELMTDRVGKAFKYLEAVLSFIECGIATESESQSSKSAYSVYSETVDLIKFIMSLKSFSDATAPTQEKIFAVLCMRCQSILNMAMFRCKKDIAIKYSRTLNKHFESSSKVAQAPSPCIASTGTPSPLSPMPSPASSVGSQSSAGSVGSSGVAATISTPVTIQNMTSSYVTITSHVLTAFDLWEQAEALTRKNKEFFARLSTNVCTLALNSSLVDLVHYTRQGFQQLQELTKTP
